Results: PubChem BioAssay AID328 (DTP/NCI, 2004)
The list is a part of this screen's results and no random one: it is rich in T/C values a quarter to a half above the control, in often repeated tests (any T/C) and in doses without a T/C. Other doses and runs of a compound stand elsewhere. T/C gives the treated animals as a percentage of the vehicle group. Some entries give survivors of the animals treated and no T/C: the source files T/C as zero there, which appears to mark a toxic dose or a test without result, not a measured value. Some survivor counts are full or nearly so, which does not show that the dose was tolerated: survival well below the control is almost never listed, so the zero probably covers shortened survival too. Survivors were counted at the toxicity check, usually on the fifth day, unless a day is given; later deaths do not show. Schedules are NCI's codes, read here as Q, the interval in days (D) or hours (H), X, the number of doses. Where survival is the endpoint, the PubChem record calls one and a half times the control and up active, and a quarter to a half above the control has no call in these data; cut-offs in other NCI protocols can differ. Some T/C values carry the count of animals alive at the toxicity check (mostly the fifth day); without a count, all were alive then. Some doses were run more than once; the results are listed from low to high.

Tested on: BDF1 mice, P388 leukemia ip, median survival T/C
Assay: NCI In Vivo Anticancer Drug Screen. Data for tumor model P388 Leukemia (intraperitoneal) in B6D2F1 (BDF1) mice
Settings: T/C endpoint: median survival time, higher T/C = longer survival
Protocol: The antitumor activity of compounds was measured in mice bearing transplantable tumors. Survival or tumor size were measured and the results are expressed as the measurement made in the treated group (T) divided by the measurement made in the vehicle treated control group (C). The tumor model used in this assay is P388 Leukemia (intraperitoneal) in B6D2F1 (BDF1) mice

[1] = dose: 400.0 mg/kg/injection, schedule: Q01DX009 (ip), vehicle: saline with Tween-80
[2] = dose: 400.0 mg/kg/injection, schedule: Q01DX009 (ip), vehicle: saline
[3] = dose: 200.0 mg/kg/injection, schedule: Q01DX009 (ip), vehicle: saline
[4] = dose: 50.0 mg/kg/injection, schedule: Q01DX009 (ip), vehicle: saline with Tween-80

## N=C(N)SCc1ccc(CSC(=N)N)s1
dose: 50.0 mg/kg/injection, schedule: Q01DX009 (ip), vehicle: saline
  survivor count: 1 of 6

## c1ccc2c(c1)ccc1cc3c(ccc4ccccc43)cc12
[1]
  survivor count: 5 of 6

## CC[C@@]12CCCN3CC[C@]4(c5cccc(OC)c5N(C(C)=O)[C@@H]4CC1)[C@H]32
dose: 50.0 mg/kg/injection, schedule: Q01DX009 (ip), vehicle: Klucel (hydroxypropylcellulose) (HPC)
  survivor count: 0 of 6

## CCCCOC(=O)c1ccc(OCCOc2ccc(C(C)(C)CC(C)(C)C)cc2)c(NC(=O)CC(=O)c2cccc(N)c2)c1
dose: 25.0 mg/kg/injection, schedule: Q04DX003 (ip), vehicle: saline sonified
  survivor count: 6 of 6

## OCc1ccn2c1[C@@H](O)CC2
dose: 25.0 mg/kg/injection, schedule: Q01DX010 (ip), vehicle: saline
  T/C: 147 % of control
dose: 50.0 mg/kg/injection, schedule: Q01DX010 (ip), vehicle: saline
  T/C: 133 % of control
dose: 100.0 mg/kg/injection, schedule: Q01DX010 (ip), vehicle: saline
  survivor count: 6 of 6
dose: 200.0 mg/kg/injection, schedule: Q01DX010 (ip), vehicle: saline
  survivor count: 3 of 6

## Brc1cnc[nH]1
dose: 200.0 mg/kg/injection, schedule: Q04DX003 (ip), vehicle: water
  T/C: 127 % of control
dose: 400.0 mg/kg/injection, schedule: Q01DX009 (ip), vehicle: water
  survivor count: 6 of 6

## C=C1C(=O)OC2/C=C(\C)C(=O)/C=C\C(C)(O)CC(OC(=O)C(C)C)C12 (stereo not drawn)
dose: 50.0 mg/kg/injection, schedule: Q01DX009 (ip), vehicle: saline + alcohol
  survivor count: 1 of 4
dose: 100.0 mg/kg/injection, schedule: Q01DX009 (ip), vehicle: saline + alcohol
  survivor count: 0 of 4

## O=C1/C(=C\c2ccccc2)OC(c2ccccc2)O/C1=C/c1ccccc1 (stereo not drawn)
[2]
  survivor count: 4 of 6

## CC1CN1P(=O)(Oc1ccccc1)N1CC1C (stereo not drawn)
dose: 150.0 mg/kg/injection, schedule: Q01DX009 (ip), vehicle: saline
  survivor count: 6 of 6
[3]
  survivor count: 6 of 6
[2]
  survivor count: 4 of 6

## CN(CCO)C1=C(N2CC2)C(=O)C(N(C)CCO)=C(N2CC2)C1=O
dose: 100.0 micrograms/kg/injection, schedule: Q01DX009 (ip), vehicle: saline
  T/C: 131 % of control

## C=CCN1C(=O)C=CC1=O
dose: 1.5 mg/kg/injection, schedule: Q01DX009 (ip), vehicle: saline
  T/C: 133 % of control
dose: 6.0 mg/kg/injection, schedule: Q01DX009 (ip), vehicle: saline
  survivor count: 5 of 6

## CC(C)(N)COS(=O)(=O)O
[3]
  survivor count: 6 of 6

## O=COCC(O)COC=O
dose: 400.0 mg/kg/injection, schedule: Q04DX003 (ip), vehicle: saline
  survivor count: 5 of 6

## N#CCCSC(=S)C1CCCC1=N (stereo not drawn)
[4]
  T/C: 128 % of control

## O=c1[nH]c(=O)c(C2OC(CO)C(O)C2O)co1 (stereo not drawn)
dose: 4.0 mg/kg/injection, schedule: Q04DX003 (ip), vehicle: saline with Tween-80
  T/C: 133 % of control
dose: 5.0 mg/kg/injection, schedule: Q04DX003 (ip), vehicle: saline with Tween-80
  T/C: 133 % of control
dose: 6.0 mg/kg/injection, schedule: Q04DX003 (ip), vehicle: saline with Tween-80
  T/C: 133 % of control
dose: 6.7 mg/kg/injection, schedule: Q04DX003 (ip), vehicle: saline with Tween-80
  T/C: 137 % of control
dose: 10.0 mg/kg/injection, schedule: Q04DX003 (ip), vehicle: saline with Tween-80
  T/C: 137 and 141 % of control
dose: 15.0 mg/kg/injection, schedule: Q04DX003 (ip), vehicle: saline with Tween-80
  T/C: 145 % of control

## CC(C)NCC(=O)c1ccc(O)c(O)c1
dose: 200.0 mg/kg/injection, schedule: Q01DX009 (ip), vehicle: saline with Tween-80
  T/C: 127 % of control
dose: 264.0 mg/kg/injection, schedule: Q01DX009 (ip), vehicle: saline with Tween-80
  T/C: 138 % of control [4 of 6 alive]
[1]
  T/C: 140 % of control
  survivor count: 2 of 6
dose: 600.0 mg/kg/injection, schedule: Q01DX009 (ip), vehicle: saline with Tween-80
  survivor count: 0 of 6

## C=C(CC(N)=O)C(=O)O (tested in a mixture with another compound)
dose: 600.0 mg/kg/injection, schedule: Q01DX003 (ip), vehicle: saline
  T/C: 131 % of control

## CNCC(=O)NC(CO)C(=O)NC1C(C(N)=O)OC(n2ccc(N)nc2=O)C(O)C1O (stereo not drawn)
dose: 6.0 mg/kg/injection, schedule: Q04DX003 (ip), vehicle: saline
  survivor count: 3 of 8
dose: 12.0 mg/kg/injection, schedule: Q04DX003 (ip), vehicle: saline
  survivor count: 4 of 8

## COc1ccc(/C=C/c2ccc3ccccc3[n+]2C)cc1OC
dose: 9.37 mg/kg/injection, schedule: Q01DX009 (ip), vehicle: saline
  T/C: 145 % of control

## O=C(Nc1cc(Cl)ccc1C(=O)O)c1cccc(C[n+]2ccccc2)c1
dose: 200.0 mg/kg/injection, schedule: Q01DX005 (ip), vehicle: saline with Tween-80
  survivor count: 4 of 5

## C=CCCCC[P+](c1ccccc1)(c1ccccc1)c1ccccc1
dose: 6.0 mg/kg/injection, schedule: Q01DX010 (ip), vehicle: saline
  T/C: 140 and 140 % of control [4 of 6 alive]
dose: 12.0 mg/kg/injection, schedule: Q01DX010 (ip), vehicle: saline
  T/C: 131 % of control
dose: 24.0 mg/kg/injection, schedule: Q01DX010 (ip), vehicle: saline
  survivor count: 3 of 6
dose: 48.0 mg/kg/injection, schedule: Q01DX010 (ip), vehicle: saline
  survivor count: 0 of 6

## COC(=O)CCCC1=NC2=CC=CC3=NC(C)=NC(=N1)N23
[4]
  T/C: 126 % of control

## CS(=O)(=O)OCCN(CCOS(C)(=O)=O)c1ccc(N=O)cc1
dose: 4.0 mg/kg/injection, schedule: Q01DX010 (ip), vehicle: saline
  survivor count: 6 of 6
dose: 8.0 mg/kg/injection, schedule: Q01DX010 (ip), vehicle: saline
  survivor count: 4 of 6
dose: 16.0 mg/kg/injection, schedule: Q01DX010 (ip), vehicle: saline
  survivor count: 0 of 6
dose: 250.0 micrograms/kg/injection, schedule: Q01DX010 (ip), vehicle: saline
  survivor count: 6 of 6
dose: 500.0 micrograms/kg/injection, schedule: Q01DX010 (ip), vehicle: saline
  survivor count: 4 of 6
